The other results are listed elsewhere or left out. Further columns of the screen follow, without active or inactive calls. Most of these compounds were active or inconclusive in the main read-out, so they are no random draw. Potencies come from curve fits of mixed quality, noted in brackets.
Experiment: qHTS Assay for Lipid Storage Modulators in Drosophila S3 Cells;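 as to cell number change: cells counted by Cell Tracker Red CMTPX staining in the red channel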
Conditions: BODIPY lipid droplet fluorescence, 18-24 h; for cell number change: measured here: cell count max response, cells fed with added oleic acid
Procedure, shortened: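 Laser-scanning cytometry quantifies lipid droplet accumulation (500–530 nm total intensity; droplet/cell object ratio) in oleic acid-fed (400 uM added) Drosophila S3 cells treated with a concentration series. 20 uM Triacsin C defined 100% inhibition.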

[1] = measured here: lipid fluorescence (Fed channel) AC50, cells fed with added oleic acid
[2] = measured here: cell number channel AC50, cells fed with added oleic acid

In the case of O=C(CCC(=O)N1CCN(S(=O)(=O)c2ccc3ccccc3c2)CC1)NCC(F)(F)F, the cell number change is reported as -11.9% and the AC50 [1] is reported as 0.82 µM [falling, full curve, poor fit].

With COc1cc(/C=C2\CCC(C3CCCC3)C2=O)ccc1OC(C)C (stereo not given) the cell number change was 21.3% and the AC50 [1] was 1.84 µM [rising, partial curve, poor fit].

With COc1ccc(CNC(=O)CN(c2cccc([N+](=O)[O-])c2)S(C)(=O)=O)cc1 the cell number change was -44.5%, the AC50 [2] was 10.3 µM [falling, single point] and the AC50 [1] was 0.00731 µM [falling, full curve, poor fit].

With COc1ccc([N+](=O)[O-])cc1/C=N/Nc1nn[nH]n1 the cell number change was -36.4%, the AC50 [2] was 4.61 µM [falling, full curve] and the AC50 [1] was 2.59 µM [falling, single point].

For Cc1ccc(C)c(-n2nnnc2SCC(=O)c2ccc3c(c2)NC(=O)CO3)c1, the cell number change was -62.5%, the AC50 [2] was 16.4 µM [falling, single point] and the AC50 [1] was 14.6 µM [falling, single point].

COc1ccc(CNC(=O)CSc2nc3nc(C)cc(C)n3n2)cc1 showed a cell number change of -3.95%.

With O=C(CCC(=O)N1CCOc2ccc(Cl)cc21)NCCCN1CCC(Cc2ccccc2)CC1 the cell number change was -3.17% and the AC50 [1] was 5.17 µM [falling, partial curve].

With O=C(c1ccncc1)N1CCCC(N2CCN(c3ccc(F)cc3)CC2)C1 (stereo not given) the cell number change was 45.4% and the AC50 [2] was 13 µM [rising, partial curve, poor fit].

For CCC(=O)Nc1ccc(C(=O)N2CCN(C(=O)c3ccco3)CC2)cc1, the cell number change was 19.7% and the AC50 [2] was 0.082 µM [falling, full curve, poor fit].

With O=C(NCCN1CCOCC1)c1ccc(NS(=O)(=O)c2ccccc2)cc1 the cell number change was 5.2% and the AC50 [1] was 29.1 µM [falling, single point].

With COc1ccc(-n2cnnc2SCC(=O)Nc2nc(C)c(Cl)cc2Cl)cc1 the AC50 [2] was 1.46 µM [rising, partial curve] and the AC50 [1] was 1.84 µM [rising, partial curve].

With CCN(C(=O)c1cn(CC)c(=O)c2cc(OC)c(OC)cc12)c1ccccc1C the cell number change was 87.5% and the AC50 [2] was 23.1 µM [rising, single point].

With COc1ccccc1NC(=O)C1=C(C)NC(SCC(=O)c2ccc(C)cc2)=C(C#N)C1c1ccco1 (stereo not given) the AC50 [2] was 0.411 µM [rising, single point] and the AC50 [1] was 6.51 µM [rising, single point].

For CCc1nnc(NC(=O)CS(=O)(=O)c2ccccc2)s1, the cell number change was 0.833% and the AC50 [1] was 0.116 µM [rising, single point].

With CCc1n[nH]c(=S)n1/N=C/c1ccccc1OCc1ccc(Cl)cc1 the cell number change was -56.7% and the AC50 [2] was 29.1 µM [falling, single point].

With NNC(=O)c1nc[nH]c1C(=O)Nc1ccccn1 the cell number change was 2.64% and the AC50 [1] was 8.2 µM [falling, partial curve, poor fit].

With Cc1ccc(NC(=O)CNc2cccc(S(=O)(=O)N3CCCC3)c2)cc1F the cell number change was 102% and the AC50 [2] was 18.4 µM [rising, partial curve].

For O=S(=O)(NCc1ccccc1)c1ccc(Br)s1, the AC50 [1] was 29.1 µM [rising, single point].

In the case of CCOC(=O)C(N)CSC1CC(=O)N(CCc2ccccc2)C1=O (stereo not given), the cell number change is reported as -5.25% and the AC50 [1] is reported as 16.4 µM [falling, partial curve].

For O=C(Nc1cccc(NC(=O)c2ccco2)c1)c1ccccc1, the cell number change was 17.9% and the AC50 [1] was 5.17 µM [falling, single point].

COC(=O)c1sccc1NC(=O)Nc1ccc(OC)cc1OC showed a cell number change of -21.2%.

For CNc1nc(NCc2ccccc2)c2ccccc2n1, the cell number change was 3.28%.

O=C(c1ccc(F)cc1F)N1CCCC(c2nc(-c3cccs3)no2)C1 (stereo not given) showed a cell number change of 4.78%.

With COc1ccccc1N1CC(C(=O)Nc2cc(C(F)(F)F)ccc2N2CCCC2)CC1=O (stereo not given) the cell number change was 58.6% and the AC50 [2] was 29.1 µM [rising, single point].

For O=C(COC(=O)COc1ccc2ccccc2c1)NCC(F)(F)F, the cell number change was 49.6%.

With CC(C(=O)N1CCN(Cc2ccccc2)CC1)n1ncn2cccc2c1=O (stereo not given) the cell number change was 19.9% and the AC50 [1] was 29.1 µM [rising, single point].

In the case of COc1ccc(OC)c(NC(=O)c2cc3sccc3n2C)c1, the cell number change is reported as -0.32%.

With COc1cccc(C(=O)Nc2ccc(NC(=O)c3cc4ccccc4o3)c(OC)c2)c1 the cell number change was -16.5% and the AC50 [1] was 4.11 µM [falling, full curve].

Molecule Cc1cc(-c2ccc(Br)s2)nc(-n2cccc2)n1 has a cell number change of -13.5%.

In the case of CCOc1ccc(C(=O)CC(Sc2ccc(C)cc2)C(=O)O)cc1 (stereo not given), the cell number change is reported as -5.23% and the AC50 [1] is reported as 11.6 µM [falling, partial curve, poor fit].

With Cc1ccc(C(c2c(O)nc3n(c2=O)CCS3)c2c(O)nc3n(c2=O)CCS3)cc1 the cell number change was -83.3% and the AC50 [1] was 0.103 µM [falling, full curve, poor fit].

Work on CCn1c2ccc(/C(C)=N\O)cc2c2cc(/C(C)=N\O)ccc21 yielded a cell number change of -14.9%.

Work on CC1(C2CC2)NC(=O)N(CC(=O)Nc2ccc(Cl)c([N+](=O)[O-])c2)C1=O (stereo not given) yielded a cell number change of -20.8%.

With CC(=O)c1ccc(OC(C)c2nc3ccccc3s2)cc1 (stereo not given) the cell number change was -8.33% and the AC50 [1] was 0.58 µM [rising, single point].

Work on Cn1c(=O)c2c(nc(NCc3ccco3)n2CC(O)COc2ccccc2)n(C)c1=O (stereo not given) yielded a cell number change of -16.6%.

For CCCC1(c2ccccc2)NC(=O)N(CC(=O)NCc2ccc(OC)cc2)C1=O (stereo not given), the AC50 [1] was 29.1 µM [rising, single point].

In the case of COc1cc2c(cc1OC)C(c1ccc(Br)cc1)CC(=O)N2 (stereo not given), the cell number change is reported as -20.6% and the AC50 [1] is reported as 20.6 µM [falling, single point].

For CCCOc1ccc(N2C(=O)CC(N(CCc3ccc(OC)c(OC)c3)C(=O)c3ccccc3)C2=O)cc1 (stereo not given), the cell number change was -9.05% and the AC50 [1] was 2.59 µM [falling, partial curve].

For Cc1ccccc1OCC(=O)OCC(=O)Nc1ccc2c(c1)OCCO2, the cell number change was 16% and the AC50 [1] was 23.1 µM [rising, single point].

With COc1ccc(NC(=O)CN2CCC3(O)CCCCC3C2c2ccccc2OC)cc1 (stereo not given) the cell number change was -51.2% and the AC50 [2] was 29.1 µM [falling, single point].

For C=C(C)c1cccc(C(C)(C)NC(=O)Nc2ccc(Cl)cn2)c1, the cell number change was -39% and the AC50 [2] was 14.6 µM [falling, single point].

With O=C(CCC1CCCC1)N=C1SC2CS(=O)(=O)CC2N1c1ccccc1F (stereo not given) the cell number change was 31.8% and the AC50 [2] was 29.1 µM [rising, single point].

In the case of CCC(C)(C)n1nnnc1CN1CCN(c2nc3cc(OC)ccc3cc2C#N)CC1, the cell number change is reported as -1.43% and the AC50 [1] is reported as 0.92 µM [rising, full curve].

In the case of Cc1cc(NC(=O)CSc2nnc(COc3cccc(C)c3C)n2Cc2ccco2)no1, the AC50 [1] is reported as 0.731 µM [falling, single point].

With NNC(=O)c1ccc(COc2ccc3ccccc3c2)cc1 the cell number change was 2.95% and the AC50 [1] was 0.116 µM [rising, full curve, poor fit].

For O=C(CCC1CCCC1)NCCCN1CCOCC1, the cell number change was -23.5%, the AC50 [2] was 0.184 µM [falling, full curve, poor fit] and the AC50 [1] was 20.6 µM [falling, partial curve].

With CCCCC(=O)Nc1nnc(-c2ccco2)o1 the cell number change was 11.1%.

In the case of CC(=O)c1cccc(S(=O)(=O)N2CCCC(c3nc(-c4ccc(C)o4)no3)C2)c1 (stereo not given), the cell number change is reported as 8.22%.

With NNC(=O)COc1ccc(-c2nccc(-c3ccc(F)cc3)n2)cc1 the cell number change was -4.82% and the AC50 [1] was 0.0651 µM [rising, full curve, poor fit].

For CC1=NN(c2ccc(C)cc2)C(=O)/C1=C/c1ccc(-c2cc([N+](=O)[O-])ccc2O)o1, the cell number change was -45.6% and the AC50 [2] was 1.64 µM [falling, partial curve, poor fit].

For O=C(O)CC(c1ccc(OC2CCCC2)cc1)N1C(=O)c2ccccc2C1=O (stereo not given), the cell number change was 41.4% and the AC50 [1] was 0.58 µM [falling, single point].

Molecule O=C(c1cc(-c2ccco2)nc2ccccc12)N1CCN(Cc2ccccc2)CC1 has a cell number change of -1.16%.

In the case of CC(=O)N(c1ccc(Br)cc1)C1C=CS(=O)(=O)C1 (stereo not given), the cell number change is reported as -53.6%, the AC50 [2] is reported as 13 µM [falling, partial curve] and the AC50 [1] is reported as 18.4 µM [falling, partial curve].

For Cc1cc2c3c(c1C)C1(C(=O)N3C(C)(C)CC2C)C(C#N)=C(N)Oc2cc(O)ccc21 (stereo not given), the cell number change was -53%, the AC50 [2] was 3.66 µM [rising, single point] and the AC50 [1] was 4.61 µM [rising, partial curve].

With CCN(c1ccc(OC)cc1)S(=O)(=O)c1nnc(NC(=O)CC(C)C)s1 the cell number change was 41.1% and the AC50 [2] was 25.9 µM [rising, partial curve, poor fit].

In the case of CCOCCNC(=O)c1ccccc1C(=O)NCCOCC, the cell number change is reported as 6.81% and the AC50 [1] is reported as 0.731 µM [falling, full curve].

Work on COc1ccc(CNC(=O)CN(C(=O)c2snc(C(N)=O)c2N)c2ccc(F)cc2)cc1 yielded a cell number change of 0.427%.

N#Cc1ccccc1CSc1ccc(-c2nc3ccccc3[nH]2)cn1 showed a cell number change of -85%.

For COCc1c(C(=O)NC2CCCCC2)sc2cccc(F)c12, the cell number change was -0.137% and the AC50 [1] was 29.1 µM [falling, single point].

With COc1ccccc1N1CCN(CC(=O)Nc2cccc(F)c2)CC1 the cell number change was 19.5% and the AC50 [1] was 10.3 µM [rising, partial curve].

O=C(CCN1CCN(c2ccccc2)CC1)Nc1ccc(OCc2ccccc2)cc1 gave a cell number change of -4.52%.

With O=C(O)CN1CCN(Cc2ccc(F)cc2Cl)C1=O the cell number change was 15% and the AC50 [1] was 1.46 µM [falling, partial curve].

With CCn1cc(CN2CCC(n3nccc3NC(=O)CCCc3ccccc3)CC2)c(C)n1 the cell number change was 3.05% and the AC50 [1] was 29.1 µM [rising, single point].

In the case of O=C(c1ccc2c(c1)OCO2)C1CCCN(Cc2cn[nH]c2-c2ccccc2)C1 (stereo not given), the cell number change is reported as 5.27% and the AC50 [1] is reported as 0.00517 µM [falling, full curve, poor fit].

— PubChem BioAssay AID2685 (National Center for Advancing Translational Sciences (NCATS), 2010)
